Data reported in the supplement of paper PMC12819154, “High-throughput peptide-centric local stability assay extends protein–ligand identification to membrane proteins, tissues and bacteria” (Nature Structural & Molecular Biology, 2025).
The list shows a part of the results. Most values lie at the level of the controls, where differences are scatter.

The chains behind the UniProt entries cited, without tags or fusion partners. Where a name states a change or a piece, a line headed by the entry shows the natural chain unless it says otherwise.
UniProt P27129: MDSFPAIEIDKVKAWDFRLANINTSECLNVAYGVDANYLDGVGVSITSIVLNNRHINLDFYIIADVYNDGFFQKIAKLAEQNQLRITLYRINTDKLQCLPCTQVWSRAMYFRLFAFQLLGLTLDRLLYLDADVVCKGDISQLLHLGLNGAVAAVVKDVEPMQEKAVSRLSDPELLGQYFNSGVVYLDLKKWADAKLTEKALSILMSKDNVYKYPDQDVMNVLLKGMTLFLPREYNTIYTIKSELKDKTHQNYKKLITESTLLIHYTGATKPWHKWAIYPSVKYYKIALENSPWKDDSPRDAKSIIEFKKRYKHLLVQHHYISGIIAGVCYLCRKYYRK
UniProt P25737: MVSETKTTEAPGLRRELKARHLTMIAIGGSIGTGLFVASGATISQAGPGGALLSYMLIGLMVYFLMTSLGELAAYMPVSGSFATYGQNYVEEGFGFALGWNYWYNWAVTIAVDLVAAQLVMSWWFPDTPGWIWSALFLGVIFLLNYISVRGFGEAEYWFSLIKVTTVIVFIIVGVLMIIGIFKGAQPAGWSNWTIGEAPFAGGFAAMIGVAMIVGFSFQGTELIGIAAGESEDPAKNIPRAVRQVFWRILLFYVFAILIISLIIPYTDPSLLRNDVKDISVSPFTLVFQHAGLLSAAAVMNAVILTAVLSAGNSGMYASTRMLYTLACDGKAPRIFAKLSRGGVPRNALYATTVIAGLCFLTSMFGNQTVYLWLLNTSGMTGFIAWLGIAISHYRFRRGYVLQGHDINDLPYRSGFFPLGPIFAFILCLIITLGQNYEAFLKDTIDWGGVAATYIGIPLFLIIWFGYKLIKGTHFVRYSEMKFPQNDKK
UniProt P32662: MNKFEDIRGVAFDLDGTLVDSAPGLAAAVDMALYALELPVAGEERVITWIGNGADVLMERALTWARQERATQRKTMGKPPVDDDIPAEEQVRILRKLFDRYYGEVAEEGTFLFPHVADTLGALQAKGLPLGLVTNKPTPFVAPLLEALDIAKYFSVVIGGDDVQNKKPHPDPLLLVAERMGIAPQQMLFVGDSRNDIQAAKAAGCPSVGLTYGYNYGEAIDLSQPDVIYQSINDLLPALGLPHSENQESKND
UniProt P33352: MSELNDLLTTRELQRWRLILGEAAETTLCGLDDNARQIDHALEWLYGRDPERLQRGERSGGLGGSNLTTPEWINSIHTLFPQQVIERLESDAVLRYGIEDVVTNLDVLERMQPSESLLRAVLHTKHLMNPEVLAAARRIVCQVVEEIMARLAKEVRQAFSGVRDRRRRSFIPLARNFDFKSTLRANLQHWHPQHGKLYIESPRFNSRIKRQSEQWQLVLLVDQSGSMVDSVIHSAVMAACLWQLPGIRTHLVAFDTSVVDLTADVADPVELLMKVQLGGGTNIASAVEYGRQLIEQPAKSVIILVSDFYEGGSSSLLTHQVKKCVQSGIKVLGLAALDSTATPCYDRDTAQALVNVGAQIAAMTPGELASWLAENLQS
UniProt P32139: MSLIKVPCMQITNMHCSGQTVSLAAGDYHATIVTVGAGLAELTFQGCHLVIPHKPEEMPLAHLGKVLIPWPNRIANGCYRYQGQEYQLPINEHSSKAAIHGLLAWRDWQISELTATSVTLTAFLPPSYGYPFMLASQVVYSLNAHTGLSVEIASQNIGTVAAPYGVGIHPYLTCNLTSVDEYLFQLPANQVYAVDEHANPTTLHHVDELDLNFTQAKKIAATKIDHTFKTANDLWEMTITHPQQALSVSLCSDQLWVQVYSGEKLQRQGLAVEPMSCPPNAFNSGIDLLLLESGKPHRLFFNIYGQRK
UniProt P32144: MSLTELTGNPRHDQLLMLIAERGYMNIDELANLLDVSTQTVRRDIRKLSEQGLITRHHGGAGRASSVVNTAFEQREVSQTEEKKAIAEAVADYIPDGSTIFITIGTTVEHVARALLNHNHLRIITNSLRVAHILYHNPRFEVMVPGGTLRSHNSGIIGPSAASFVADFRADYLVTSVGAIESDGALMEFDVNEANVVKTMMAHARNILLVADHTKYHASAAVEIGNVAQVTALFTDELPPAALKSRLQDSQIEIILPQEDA
UniProt P30178: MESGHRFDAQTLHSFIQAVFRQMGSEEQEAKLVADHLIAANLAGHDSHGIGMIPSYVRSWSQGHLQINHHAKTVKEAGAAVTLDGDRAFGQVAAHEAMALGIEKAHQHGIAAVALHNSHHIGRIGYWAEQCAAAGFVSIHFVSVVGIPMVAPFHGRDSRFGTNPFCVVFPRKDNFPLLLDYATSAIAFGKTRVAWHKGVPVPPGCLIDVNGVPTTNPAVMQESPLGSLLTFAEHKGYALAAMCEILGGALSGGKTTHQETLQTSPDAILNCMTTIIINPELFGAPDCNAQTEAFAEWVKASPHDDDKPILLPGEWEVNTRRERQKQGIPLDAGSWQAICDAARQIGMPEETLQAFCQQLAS
UniProt P32670: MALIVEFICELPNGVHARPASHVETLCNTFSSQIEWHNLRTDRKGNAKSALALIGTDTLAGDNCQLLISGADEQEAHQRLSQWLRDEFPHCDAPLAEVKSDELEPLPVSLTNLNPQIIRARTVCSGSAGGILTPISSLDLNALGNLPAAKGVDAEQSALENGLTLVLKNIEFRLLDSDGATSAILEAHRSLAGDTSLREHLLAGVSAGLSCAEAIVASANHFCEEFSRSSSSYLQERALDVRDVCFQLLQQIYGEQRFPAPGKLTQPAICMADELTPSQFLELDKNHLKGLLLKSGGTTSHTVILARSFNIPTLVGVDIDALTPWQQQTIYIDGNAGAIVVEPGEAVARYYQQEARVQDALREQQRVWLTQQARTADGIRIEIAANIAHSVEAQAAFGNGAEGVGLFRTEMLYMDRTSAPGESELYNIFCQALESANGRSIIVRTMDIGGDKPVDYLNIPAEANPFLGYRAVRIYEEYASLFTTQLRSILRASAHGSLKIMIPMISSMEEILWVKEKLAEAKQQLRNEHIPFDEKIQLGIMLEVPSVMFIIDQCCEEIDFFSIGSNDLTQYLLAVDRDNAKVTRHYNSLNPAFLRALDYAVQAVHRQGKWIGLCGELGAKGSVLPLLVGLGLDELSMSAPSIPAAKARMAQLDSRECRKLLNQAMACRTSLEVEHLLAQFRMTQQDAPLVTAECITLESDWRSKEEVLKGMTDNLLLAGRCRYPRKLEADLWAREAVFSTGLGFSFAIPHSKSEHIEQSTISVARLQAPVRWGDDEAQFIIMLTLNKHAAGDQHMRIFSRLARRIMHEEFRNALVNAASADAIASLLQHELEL
UniProt P27297: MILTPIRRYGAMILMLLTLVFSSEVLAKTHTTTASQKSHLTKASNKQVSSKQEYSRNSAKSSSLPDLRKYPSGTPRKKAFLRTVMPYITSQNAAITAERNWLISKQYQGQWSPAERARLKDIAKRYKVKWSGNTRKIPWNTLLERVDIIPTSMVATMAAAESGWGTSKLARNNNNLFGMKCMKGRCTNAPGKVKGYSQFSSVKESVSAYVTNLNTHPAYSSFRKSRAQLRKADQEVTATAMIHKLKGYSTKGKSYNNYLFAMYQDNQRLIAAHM
UniProt P32703: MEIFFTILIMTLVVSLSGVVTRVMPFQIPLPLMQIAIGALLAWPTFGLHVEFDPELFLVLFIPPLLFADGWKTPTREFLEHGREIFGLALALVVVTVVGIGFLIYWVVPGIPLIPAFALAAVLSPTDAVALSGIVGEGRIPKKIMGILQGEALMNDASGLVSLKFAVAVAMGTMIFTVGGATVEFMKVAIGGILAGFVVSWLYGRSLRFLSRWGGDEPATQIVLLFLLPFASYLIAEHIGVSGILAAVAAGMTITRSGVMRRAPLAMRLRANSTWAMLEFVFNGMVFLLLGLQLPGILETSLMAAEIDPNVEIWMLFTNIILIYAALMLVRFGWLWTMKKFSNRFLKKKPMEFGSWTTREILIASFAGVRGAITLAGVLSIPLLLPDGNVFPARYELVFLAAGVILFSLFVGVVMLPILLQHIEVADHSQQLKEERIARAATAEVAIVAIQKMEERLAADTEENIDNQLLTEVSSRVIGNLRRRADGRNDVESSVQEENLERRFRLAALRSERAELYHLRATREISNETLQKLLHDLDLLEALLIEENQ
UniProt P31666: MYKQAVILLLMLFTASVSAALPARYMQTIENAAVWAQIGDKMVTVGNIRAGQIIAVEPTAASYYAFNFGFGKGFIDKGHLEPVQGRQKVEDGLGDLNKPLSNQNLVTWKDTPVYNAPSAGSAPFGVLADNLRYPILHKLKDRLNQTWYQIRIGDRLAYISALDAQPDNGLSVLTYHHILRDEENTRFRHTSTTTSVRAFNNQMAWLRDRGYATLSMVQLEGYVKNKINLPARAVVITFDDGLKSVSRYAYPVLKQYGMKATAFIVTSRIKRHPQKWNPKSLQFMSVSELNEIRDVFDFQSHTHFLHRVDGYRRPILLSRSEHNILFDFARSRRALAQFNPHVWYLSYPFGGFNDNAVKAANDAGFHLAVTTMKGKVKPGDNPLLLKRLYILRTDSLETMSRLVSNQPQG

compound: CC1(C)S[C@@H]2[C@H](NC(=O)[C@H](N)c3ccccc3)C(=O)N2[C@H]1C(=O)O [ampicillin]; assay: log2 fold change of tryptic peptide abundance, ligand vs vehicle (limited proteolysis) (log2 ratio); higher = more trypsin-susceptible (destabilized); conditions: ligand concentration: 10 uM; sample: E. coli crude lysate

Target | log2 fold change
UniProt P27129 (peptide sequence: WAIYPSVK, peptide start residue: 275) | -0.438
UniProt P25737 (peptide sequence: TTEAPGLRR, peptide start residue: 7) | -0.135
UniProt P32662 (peptide sequence: TMGKPPVDDDIPAEEQVR, peptide start residue: 75) | 0.139
UniProt P33352 (peptide sequence: LYIESPR, peptide start residue: 197) | 0.0872
UniProt P32139 (peptide sequence: YQGQEYQLPINEHSSK, peptide start residue: 81) | -0.278
UniProt P32144 (peptide sequence: HDQLLMLIAER, peptide start residue: 12) | -0.195
UniProt P30178 (peptide sequence: AFGQVAAHEAMALGIEK, peptide start residue: 88) | -0.114
UniProt P32670 (peptide sequence: NEHIPFDEK, peptide start residue: 527) | 0.288
UniProt P27297 (peptide sequence: SSSLPDLR, peptide start residue: 61) | -0.13
UniProt P32703 (peptide sequence: AATAEVAIVAIQK, peptide start residue: 440) | -0.123
UniProt P31666 (peptide sequence: GFIDKGHLEPVQGR, peptide start residue: 73) | 0.0348

Laid out differently: results already given.
Target	log2 fold change
UniProt P27129 (peptide sequence: WAIYPSVK, peptide start residue: 275)	-0.438
UniProt P25737 (peptide sequence: TTEAPGLRR, peptide start residue: 7)	-0.135
UniProt P32662 (peptide sequence: TMGKPPVDDDIPAEEQVR, peptide start residue: 75)	0.139
